Here are results for one molecule from publication PMC5021139 (Journal of Neuroendocrinology, 2016).

Amino acid sequences for entries named in this document (tags omitted).
UniProt P30559: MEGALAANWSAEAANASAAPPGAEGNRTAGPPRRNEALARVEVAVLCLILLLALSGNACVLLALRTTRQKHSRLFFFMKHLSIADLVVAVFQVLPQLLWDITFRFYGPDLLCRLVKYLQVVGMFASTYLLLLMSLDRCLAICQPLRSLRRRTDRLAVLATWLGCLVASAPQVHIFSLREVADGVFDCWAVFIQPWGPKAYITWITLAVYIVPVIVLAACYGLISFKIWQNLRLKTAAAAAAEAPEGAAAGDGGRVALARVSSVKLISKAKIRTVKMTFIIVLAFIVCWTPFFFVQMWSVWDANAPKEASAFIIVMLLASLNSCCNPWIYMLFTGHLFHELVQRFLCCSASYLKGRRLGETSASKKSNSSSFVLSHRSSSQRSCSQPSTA

These are yes or no findings as the source states them, for the method shown. In cells and extracts the contact can be indirect.

The assay addresses human oxytocin receptor fused to Renilla luciferase (hOXTR‐Rluc) (human) (UniProt P30559). Kind of assay: condition: only with carbetocin (10 μM) as the agonist in place of oxytocin; FRET or BRET; kinetic BRET1 in HEK293 cells co-transfected with hOXTR-Rluc (donor) and β-arrestin1- or β-arrestin2-Venus (acceptor); cells in PBS with 0.1% glucose at room temperature; coelenterazine h added 8 min before carbetocin (10 μM); read in real time for 5 min. On the technique in general: Bioluminescence resonance energy transfer reports proximity on the nanometre scale.

B1: β‐arrestin1‐Venus (natural protein, UniProt P49407 1-418, looked up)
chain: MGDKGTRVFKKASPNGKLTVYLGKRDFVDHIDLVDPVDGVVLVDPEYLKERRVYVTLTCAFRYGREDLDVLGLTFRKDLFVANVQSFPPAPEDKKPLTRLQERLIKKLGEHAYPFTFEIPPNLPCSVTLQPGPEDTGKACGVDYEVKAFCAENLEEKIHKRNSVRLVIRKVQYAPERPGPQPTAETTRQFLMSDKPLHLEASLDKEIYYHGEPISVNVHVTNNTNKTVKKIKISVRQYADICLFNTAQYKCPVAMEEADDTVAPSSTFCKVYTLTPFLANNREKRGLALDGKLKHEDTNLASSTLLREGANREILGIIVSYKVKVKLVVSRGGLLGDLASSDVAVELPFTLMHPKPKEEPPHREVPENETPVDTNLIELDTNDDDIVFEDFARQRLKGMKDDKEEEEDGTGSPQLNNR
notes: β-arrestin1; Venus (yellow variant of GFP) fused to its C-terminus; vector provided by Professor M. Locati; source: HEK293, transfected (PEI), in living cells; not shown: Venus, C-terminal, kept
Turning to B1, the binding result is “no binding”.
